Laboratory results reported in CN117924498A.
Results are given in words; binding and its absence hold for the method and conditions named. Some binding calls cover weakened binding; strength is not graded here.

Columns and labels:
[1] = biological target: T1, siglec-15 on tumour cells (UniProt Q6ZMC9); experiment: flow cytometry on 16-HBE, T24, PC-3, NCI-H157, A549 cells
T1 sequence (looked up): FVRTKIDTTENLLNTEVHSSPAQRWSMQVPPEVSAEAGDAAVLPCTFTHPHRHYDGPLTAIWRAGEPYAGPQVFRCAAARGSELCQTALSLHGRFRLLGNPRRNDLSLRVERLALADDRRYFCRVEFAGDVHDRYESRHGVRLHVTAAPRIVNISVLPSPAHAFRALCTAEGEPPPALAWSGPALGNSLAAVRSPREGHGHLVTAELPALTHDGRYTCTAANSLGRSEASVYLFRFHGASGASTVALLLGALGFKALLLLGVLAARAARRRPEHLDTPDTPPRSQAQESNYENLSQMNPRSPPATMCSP

[2] = biological target: T1, siglec-15 on tumour cells; experiment: cell immunofluorescence, 20 ug/ml S131-IgG1 on fixed cells
[3] = biological target: T1, siglec-15 on tumour cells; experiment: flow cytometry on A549 cells stably over-expressing siglec-15 (S15-A549)

Measured: binding

B1: S131-IgG1 (antibody, V domains shown)
VH: QVQLQESGPGLVNPSGTLSLSCTVSGDSIRNWYSWVRQPPGKGLEWIGEIHDNGGTNHNPSLKSRVTMSVGKSTSQLSLILNSVTAADTAVYHCAREGLPDGLDIWGPGTMVTVSS
VL: SSELTQDPAVSVALGQTVRITCQGDSLRSYYASWYQRKPGQAPILVMYGQNNRPSGIPDRFSGSNSRNTASLTITGAQAEDEADYYCGSRDTSDYRVLFGGGTKLTVLG
binds: all assays above
